Earlier results as cited in patent US11480583B2, “Method for the diagnosis and treatment of essential primary hypertension” (Universiteit Maastricht, priority 2020, dated 2022).
For at least one compound, name, drawing or mass did not settle the structure.

Legend:
[1] = test system: elevated blood pressure induced by NOS uncoupling; conditions: cited from earlier work
elevated blood pressure = conditions: by improving endothelial function; cited from earlier work

C[C@H](O)[C@H](O)[C@H]1CNc2nc(N)[nH]c(=O)c2N1 [H4Bip, tetrahydrobiopterin]
Blood pressure lowering, preclinical [1]: lower elevated blood pressure induced by NOS uncoupling | Reduction of elevated blood pressure, clinical (elevated blood pressure): clinically effective to reduce elevated blood pressure
